# Record: PubChem BioAssay AID1671195 (Yale University, 2021)
# Test: 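Regulators of LDL receptor activity judged by labelled LDL uptake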 (primary screen)
# Cells: human Huh7 hepatoma cells
# Reagents: siRNA pool against human genes, 18 nM
# Time to read-out: about 2 to 2.5 days of knockdown, then 8 h LDL uptake
# Conditions: DiI-labelled LDL at 30 µg/ml for 8 h, in lipoprotein-deficient serum medium
# Measurement: 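Per-cell DiI-LDL intensity by automated imaging; well means scaled to the plate median and given as a robust z-score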
# Scale: robust z-score: higher = more LDL uptake after knockdown
# Active means: 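a gene counts as active if at least two replicate z-scores exceed ±2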
# The deposit covers about 22,000 reagents; below is a part drawn at random. About 1,510 of them (6.9%) were called active. 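Active includes knockdowns raising or lowering LDL uptake; positive z-scores mean more uptake, negative mean less.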 A number with no mark means an inactive call.
gene knocked down,"robust z-score, replicate 1","robust z-score, replicate 2","robust z-score, replicate 3"
KRTAP11-1 (keratin associated protein 11-1),-1.1,-0.918,-1.16
COL4A6 (collagen type IV alpha 6 chain),-0.884,-0.551,-0.634
"ST3GAL3 (ST3 beta-galactoside alpha-2,3-sialyltransferase 3)",-0.203,-0.0165,0.166
LOC441474 (retired record),-1.18,-1.22,-1.5
PGM2 (phosphoglucomutase 2),0.228,0.848,0.33
KANK2 (KN motif and ankyrin repeat domains 2),-0.44,1.27,-1.25
"RAB19 (RAB19, member RAS oncogene family)",-1.24,-1.19,-1.06
MED21 (mediator complex subunit 21),-1,-1.16,-1.16
ARL8A (ARF like GTPase 8A),0.199,0.22,0.71
SLC39A8,-0.592,-0.607,-0.739
OR10AG1 (olfactory receptor family 10 subfamily AG member 1),-1.43,-1.19,-1.21
SLC30A9,0.0742,0.459,-0.884
LOC390466 (retired record),-0.0541,0.066,-0.502
CDV3 (CDV3 homolog),1.28,1.59,1.97
IGFBP7-AS1 (IGFBP7 antisense RNA 1),7.26 (active),7.35,6.44
ZNF638 (zinc finger protein 638),0.117,-0.153,0.0201
TRIM72 (tripartite motif containing 72),-1.29,-1.27,-0.97
RASAL2 (RAS protein activator like 2),0.0369,0.0677,0.259
UBTFL2 (UBTF like 2 (pseudogene)),0.368,-0.336,-0.677
TUB (TUB bipartite transcription factor),1.21,-0.838,-0.76
"ZNF137P (zinc finger protein 137, pseudogene)",1.52,0.954,0.307
"B3GALT1 (beta-1,3-galactosyltransferase 1)",0.412,-0.717,0.162
SLC52A1,-0.578,-0.438,-0.892
COA6 (cytochrome c oxidase assembly factor 6),0.241,-0.318,-0.189
LOC401943 (retired record),0.0408,0.147,0.522
CLEC4C (C-type lectin domain family 4 member C),0.772,1.47,0.881
"FNTAP1 (farnesyltransferase, CAAX box, alpha pseudogene 1)",-0.499,-0.516,-0.425
TSEN54 (tRNA splicing endonuclease subunit 54),-0.454,-0.538,-0.4
LOC284901 (retired record),0.765,0.828,0.221
ENTPD8 (ectonucleoside triphosphate diphosphohydrolase 8),-2.05 (active),-2.34,-2.74
IL17A (interleukin 17A),-1.2,-0.462,-1.12
CYP51A1 (cytochrome P450 family 51 subfamily A member 1),2.59 (active),3.72,3.16
SLC29A1,0.456,-0.139,0.861
PI4KA (phosphatidylinositol 4-kinase alpha),-0.307,0.514,-0.126
VOPP1 (VOPP1 WW domain binding protein),-0.231,0.629,0.311
"HSFX1 (heat shock transcription factor family, X-linked 1)",2.45 (active),1.54,2.03
MRPS25 (mitochondrial ribosomal protein S25),1.04,0.523,1.69
CNGA2 (cyclic nucleotide gated channel subunit alpha 2),-0.652,0.04,0.0322
OR4N4 (olfactory receptor family 4 subfamily N member 4),-0.716,-0.368,-0.979
LINC00905 (long independently transcribed non-coding RNA 905),0.13,-0.146,0.787
OAZ1 (ornithine decarboxylase antizyme 1),0.396,-0.266,0.653
RNF186 (ring finger protein 186),-1.29,1.27,-1.13
RNF183 (ring finger protein 183),0.0369,-1.25,-0.415
RPTOR (regulatory associated protein of MTOR complex 1),-0.331,1.58,2.09
CSRP2 (cysteine and glycine rich protein 2),-1.84,-0.889,-1.6
ZKSCAN2 (zinc finger with KRAB and SCAN domains 2),-0.972,-1.26,-1.14
ALDH3B2 (aldehyde dehydrogenase 3 family member B2),-0.714,-0.529,-0.573
PCNX2 (pecanex 2),-0.448,-0.482,-0.459
"TFB1M (transcription factor B1, mitochondrial)",1.95,2.54,1.84
HPS5 (HPS5 biogenesis of lysosomal organelles complex 2 subunit 2),0.224,1.19,0.507
OR52H1 (olfactory receptor family 52 subfamily H member 1),0.816,0.439,0.494
ARFGAP2 (ARF GTPase activating protein 2),0.277,0.405,0.37
UCP2 (uncoupling protein 2),-0.831,-0.323,-0.397
LINC00485 (long independently transcribed non-coding RNA 485),-0.818,-0.815,-0.895
SLC19A2,-0.104,0.0359,0.0648
LOC284898,0.0538,0.368,-0.506
LOC392434 (retired record),-0.0321,-0.0421,0.634
TRAF6 (TNF receptor associated factor 6),0.343,-0.907,-1.03
MMD2 (monocyte to macrophage differentiation associated 2),0.97,2.34,1.53
"RAB28 (RAB28, member RAS oncogene family)",-0.213,-0.353,0.0749
OR52N2 (olfactory receptor family 52 subfamily N member 2),-0.81,-0.866,-1.04
LOC389689 (retired record),-1.16,-1.38,-1.03
PAGE1 (PAGE family member 1),-1.1,-0.73,0.72
CRTAC1 (cartilage acidic protein 1),0.396,0.805,1.03
KAT6B (lysine acetyltransferase 6B),-1.16,-0.769,-1.75
KCNIP1 (potassium voltage-gated channel interacting protein 1),-1.46,-1.6,-1.15
S100A14 (S100 calcium binding protein A14),0.759,0.65,0.331
ADD3 (adducin 3),-0.609,-0.623,-0.92

Only “robust z-score, replicate 3”, for 5 of the entries above:
RAB19 (RAB19, member RAS oncogene family): -1.06
MED21 (mediator complex subunit 21): -1.16
ARL8A (ARF like GTPase 8A): 0.71
SLC39A8: -0.739
OR10AG1 (olfactory receptor family 10 subfamily AG member 1): -1.21
